Laboratory results: PubChem BioAssay AID686938 (Drosophila RNAi Screening Center, 2013)
The deposit covers about 23,000 reagents; below is an unselected part of those with a known target gene and a result. Over the whole deposit, 75 (0.33%) were called active. 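Raw plate signals without normalisation; calls rest on plate z-scores that were not deposited; ratio present for only 364 wells.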 Reagent sequences are not shown. Not given: the dose of the treatment.

Screen: 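Fly genes required for calcium entry once internal stores are emptied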 (primary screen)
System: Drosophila S2R+ cells
Reagents: long dsRNA against Drosophila genes, about 0.25 µg dsRNA per well, roughly 10,000 cells
Time to read-out: 5 days of knock-down before the calcium assay
Challenge: thapsigargin (SERCA pump blocker) to empty calcium stores; entry signal taken 4 min after adding it
Read-out: 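Duplicate raw fluo-4 intensities per well from a plate reader, at rest and four minutes after thapsigargin emptied calcium stores; entry-to-rest ratio filled for only some wells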
Reading the numbers: calcium entry signal: higher = stronger calcium signal after store depletion; resting calcium signal: higher = higher resting calcium signal
Units: calcium entry signal in fluorescence units; resting calcium signal in fluorescence units
Rule for the call: 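Hit if the duplicate-averaged plate z-score for entry over resting signal is under −3; wells with weak total dye signal (Fmax z < −2) or more than 5 off-targets removed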
Meaning of the calls: active = strongly reduced calcium entry; inactive = no strong reduction

For Uba4 (Ubiquitin-like activating enzyme 4) [DRSC02194], what does the deposit list?
calcium entry signal, replicate 1: 3.36e7; calcium entry signal, replicate 2: 4.89e7; resting calcium signal, replicate 1: 1.67e7; resting calcium signal, replicate 2: 2.10e7; outcome: inactive

What did the screen give for RluA-1 (RluA pseudouridine synthase 1) [DRSC02240]?
calcium entry signal, replicate 1: 2.43e7; calcium entry signal, replicate 2: 4.55e7; resting calcium signal, replicate 1: 1.40e7; resting calcium signal, replicate 2: 1.81e7; outcome: inactive

For RluA-1 (RluA pseudouridine synthase 1) [DRSC03060], how do the results read?
calcium entry signal, replicate 1: 4.64e7; calcium entry signal, replicate 2: 5.30e7; resting calcium signal, replicate 1: 2.30e7; resting calcium signal, replicate 2: 2.29e7; outcome: inactive

For CG18808 [DRSC08539], how do the results read?
calcium entry signal, replicate 1: 3.09e7; calcium entry signal, replicate 2: 4.41e7; resting calcium signal, replicate 1: 1.51e7; resting calcium signal, replicate 2: 1.89e7; outcome: inactive

How did the screen score GstE5 (Glutathione S transferase E5) [DRSC06675]?
calcium entry signal, replicate 1: 5.73e7; calcium entry signal, replicate 2: 5.52e7; resting calcium signal, replicate 1: 2.44e7; resting calcium signal, replicate 2: 2.65e7; outcome: inactive

For sbr (small bristles) [DRSC19770], how do the results read?
calcium entry signal, replicate 1: 2.37e7; calcium entry signal, replicate 2: 4.01e7; resting calcium signal, replicate 1: 1.60e7; resting calcium signal, replicate 2: 2.45e7; outcome: inactive

With sbr (small bristles) [DRSC20368], how do the results read?
calcium entry signal, replicate 1: 2.34e7; calcium entry signal, replicate 2: 2.74e7; resting calcium signal, replicate 1: 1.56e7; resting calcium signal, replicate 2: 1.95e7; outcome: inactive

What did the screen give for AANATL2 (Arylalkylamine N-acetyltransferase-like 2) [DRSC03227]?
calcium entry signal, replicate 1: 3.91e7; calcium entry signal, replicate 2: 4.06e7; resting calcium signal, replicate 1: 1.91e7; resting calcium signal, replicate 2: 1.97e7; outcome: inactive

What is on record for Cdc6 (Cell division cycle 6) [DRSC10563]?
calcium entry signal, replicate 1: 4.36e7; calcium entry signal, replicate 2: 2.88e7; resting calcium signal, replicate 1: 2.83e7; resting calcium signal, replicate 2: 1.38e7; outcome: inactive

With Or33c (Odorant receptor 33c) [DRSC03388], what was measured?
calcium entry signal, replicate 1: 2.68e7; calcium entry signal, replicate 2: 1.89e7; resting calcium signal, replicate 1: 1.30e7; resting calcium signal, replicate 2: 8.99e6; outcome: inactive

For BCL7-like [DRSC17729], what does the deposit list?
calcium entry signal, replicate 1: 3.88e7; calcium entry signal, replicate 2: 4.27e7; resting calcium signal, replicate 1: 1.90e7; resting calcium signal, replicate 2: 1.94e7; outcome: inactive

What is on record for CG30356 [DRSC05119]?
calcium entry signal, replicate 1: 1.75e7; calcium entry signal, replicate 2: 2.31e7; resting calcium signal, replicate 1: 9.68e6; resting calcium signal, replicate 2: 1.15e7; outcome: inactive

2 entries already listed, ordered by “calcium entry signal, replicate 2”, high to low.
AANATL2 (Arylalkylamine N-acetyltransferase-like 2) [DRSC03227] → calcium entry signal, replicate 1: 3.91e7; calcium entry signal, replicate 2: 4.06e7; resting calcium signal, replicate 1: 1.91e7; resting calcium signal, replicate 2: 1.97e7; outcome: inactive
Cdc6 (Cell division cycle 6) [DRSC10563] → calcium entry signal, replicate 1: 4.36e7; calcium entry signal, replicate 2: 2.88e7; resting calcium signal, replicate 1: 2.83e7; resting calcium signal, replicate 2: 1.38e7; outcome: inactive
